Measured values from PubChem BioAssay AID485314 (National Center for Advancing Translational Sciences (NCATS), 2010).
Hit rate of the full screen: of about 340,000 compounds, about 4,500 (1.3%) were called active. The shares of active, inactive and inconclusive entries below differ from those in the screen. The call rests on the fitted dose curve; in most records, active means well fitted inhibition curve with a large enough effect; inconclusive means small, poorly fitted or top-dose-only effect, or another doubt; inactive means no such curve, though single readings can be large or run the other way. Where the call is inconclusive, the potency comes from a doubtful curve fit.

molecular target: DNA polymerase beta (Homo sapiens) (UniProt P06746); test: qHTS Assay for Inhibitors of DNA Polymerase Beta; details: Pol beta primer extension/strand displacement, fluorescence kinetic; activity change, negative = inhibition: at 114 µM (top of the series)
Procedure, shortened: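 Preincubation: enzyme (10 nM) with compound, 15 min, RT. Reaction: substrate added to 50 nM final. Reads: 0 and 10 min. Analysis: normalized, Hill fit.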
On the % scale 0 is the no-effect control and ±100 the full control effect; potency means the concentration at half of the fitted maximal effect.

SMILES | Potency | activity change, negative = inhibition
CCOC(=O)CSC1=C(C#N)C(c2sccc2C)C(C(C)=O)=C(C)N1 (stereo not given) | inconclusive: 10 µM [inhibitor, full curve, poor fit] | –
COc1ccc(N(CC(=O)N/N=C/c2ccco2)S(=O)(=O)c2ccccc2)cc1 | active: 8.91 µM | –
C/C(=N\NC(=O)c1ccccc1O)c1cccs1 | inconclusive: 39.8 µM [inhibitor, single point] | –
CCOc1ccc(CCNC(=O)NCc2noc3ccc(C)cc23)cc1 | inactive | –
CCc1oc2ccccc2c1C(=O)c1cc(Br)c(O)c(Br)c1 | active: 50.1 µM | –
CCOC(=O)c1sc2nc(-c3cccnc3)ccc2c1N | inconclusive: 25.1 µM [inhibitor, full curve] | –
Cc1cc(C(=O)CCl)c(C)n1Cc1ccco1 | inconclusive: 22.4 µM [inhibitor, single point] | –
CN(C)C(CNc1ncnc2sc3c(c12)CCCCC3)c1ccco1 (stereo not given) | inconclusive: 35.5 µM [inhibitor, full curve] | –
CCNCC(=O)Nc1ccc(N2CCOCC2)cc1 | inconclusive: 44.7 µM [inhibitor, partial curve, poor fit] | –
Cc1csc2nc(COc3ccc(NC(=O)c4ccccc4F)cc3)cc(=O)n12 | inconclusive: 3.98 µM [inhibitor, full curve] | –
Cc1n[nH]c(=O)c2c(NC(=O)CSc3nc4ccccc4c(=O)n3CCCOC(C)C)oc(C)c12 | inconclusive: 20 µM [inhibitor, partial curve] | –
O=c1c2ccccc2cnn1Cc1nnc(-c2cccs2)o1 | active: 44.7 µM | –
Cc1ccc(C(C)C)c(OCC(=O)Nc2ccc3c(c2)nc(CCNC(=O)c2ccco2)n3C)c1 | inconclusive: 89.1 µM [inhibitor, single point] | –
CCCC1=Nc2cc(C(=O)NCc3ccccc3)ccc2Sc2ccccc21 | inconclusive: 100 µM [inhibitor, single point] | –
COc1ccc2[nH]c(=O)c(CN(CCO)S(=O)(=O)c3ccc(C)cc3)cc2c1 | inactive | –
Cn1c(=O)c2c(-c3ccccc3)n3c(c2n(C)c1=O)C(c1ccc([N+](=O)[O-])cc1)Nc1ccccc1-3 (stereo not given) | inconclusive: 89.1 µM [inhibitor, single point] | –
Cc1ccccc1C(=O)Nc1ccc2c(c1)OCCO2 | inactive | –
COc1ccc(N(Cc2cc3cc(OC)ccc3[nH]c2=O)S(C)(=O)=O)cc1 | active: 4.47 µM | –
COc1ccccc1N1CCN(S(=O)(=O)CCNC(=O)COc2ccc(F)cc2)CC1 | inactive | –
O=C(COC(=O)c1ccc(Cl)c(S(=O)(=O)N2CCCCC2)c1)NCc1ccco1 | inconclusive: 20 µM [inhibitor, full curve] | –
CN1CCN(C(=O)CCN2C(=O)/C(=C/c3ccccc3Cl)SC2=S)CC1 | inconclusive: 0.224 µM [inhibitor, full curve, poor fit] | –
CCCc1cc(=O)[nH]c(SCC(=O)Nc2ncc(S(=O)(=O)c3ccc([N+](=O)[O-])cc3)s2)n1 | inconclusive: 79.4 µM [inhibitor, single point] | –
Cc1c(Br)c([N+](=O)[O-])nn1CC(=O)N1CCN(Cc2ccccc2)CC1 | inconclusive: 89.1 µM [inhibitor, single point] | –
CC(C)(C)c1ccc(OCC(=O)NCc2ccco2)c(Br)c1 | inconclusive: 20 µM [inhibitor, full curve, poor fit] | –

Some of the entries above in a different format.
SMILES,Potency,"activity change, negative = inhibition"
CN(C)C(CNc1ncnc2sc3c(c12)CCCCC3)c1ccco1 (stereo not given),"inconclusive: 35.5 µM [inhibitor, full curve]",–
CN1CCN(C(=O)CCN2C(=O)/C(=C/c3ccccc3Cl)SC2=S)CC1,"inconclusive: 0.224 µM [inhibitor, full curve, poor fit]",–
CCCc1cc(=O)[nH]c(SCC(=O)Nc2ncc(S(=O)(=O)c3ccc([N+](=O)[O-])cc3)s2)n1,"inconclusive: 79.4 µM [inhibitor, single point]",–

Additional records

SMILES | Potency | activity change, negative = inhibition
COC(=O)C1=C(C)OC(N)=C(C#N)C1c1ccc(OC)c(CSc2ccccn2)c1 (stereo not given) | inconclusive: 89.1 µM [inhibitor, single point] | –
Cc1ccc(C)c(N2CCN(C(=O)c3ccc(CS(=O)(=O)c4ccccc4C)o3)CC2)c1 | inconclusive: 79.4 µM [inhibitor, single point] | –
COc1ccccc1/C=C\C(=O)NCC(=O)N/N=C/c1cccc(OC)c1O | – | inconclusive: -64% [inhibitor]
Cc1ccc(N=Nc2c(N)nn3c(N)c(C#N)c(C)nc23)cc1 | active: 22.4 µM | –
COC(=O)CCCNC(=O)CC1C(=O)NCCN1Cc1ccoc1 (stereo not given) | inconclusive: 63.1 µM [inhibitor, single point] | –
Cc1cc(Nc2ccccc2Cl)n2nc(-c3ccco3)nc2n1 | inactive | –
COc1cccc(NC(=O)N(Cc2cn(C)c3ccccc23)C2CCCCC2)c1 | inconclusive: 89.1 µM [inhibitor, single point] | –
CSc1ccc(/C=N/Nc2cccc(C(=O)O)c2)cc1 | active: 2 µM | –
O=C(N/N=C1\CCCc2c1[nH]c1ccc(Cl)cc21)c1ccncc1 | inconclusive: 4.47 µM [inhibitor, full curve, poor fit] | –
Cn1cccc1C(C(=O)NC1CCCCC1)N(C(=O)Cc1cccs1)C1CC1 (stereo not given) | inactive | –
O=C(O)c1cccc(-c2ccc(/C=N/n3cnc4sc5c(c4c3=O)CCCC5)o2)c1 | – | inconclusive: -65% [inhibitor]
Cc1ccc(-n2nc3ccc(NC(=O)C(C)C)cc3n2)cc1 | inactive | –
COc1ccc2c(c1)NC(c1cc(Cl)cc(Cl)c1O)c1cccn1-2 (stereo not given) | inconclusive: 3.16 µM [inhibitor, full curve] | –
Cc1ccc(-c2cc(C(F)(F)F)n3nc(C(=O)Nc4sc5c(c4C#N)CCC(C)C5)cc3n2)cc1 (stereo not given) | inactive | –
Cc1csc2ncc(C(=O)Nc3ccon3)c(=O)n12 | inconclusive: 100 µM [inhibitor, single point] | –
O=C(NCCc1ccccc1)C(=O)NCC(c1cccnc1)N1CCN(c2ccccc2)CC1 (stereo not given) | inactive | –
Cc1ccccc1CNC(=O)CCCn1c(=O)c2cccn2c2ccccc21 | inactive | –
Cc1cc(N2CCCCC2)nc(SCc2ccc(C#N)cc2)n1 | inconclusive: 5.01 µM [inhibitor, full curve, poor fit] | –
COc1cccc(Nc2nc(N)c([N+](=O)[O-])c(NCc3ccco3)n2)c1 | – | inconclusive: -34.9% [inhibitor]
COc1ccccc1C(c1nnnn1Cc1ccccc1)N1CCN(C2CCCC2)CC1 (stereo not given) | inconclusive: 89.1 µM [inhibitor, single point] | –
C[C@H](C(=O)O)c1n[nH]c(=O)c2ccccc12 | inconclusive: 89.1 µM [inhibitor, single point] | –
CN(CCc1ccccc1)Cc1nc(-c2cnccn2)no1 | inconclusive: 89.1 µM [inhibitor, single point] | –
N#Cc1ccc(NC(=O)COCc2cc(-c3ccc4c(c3)OCO4)on2)cc1 | inconclusive: 70.8 µM [inhibitor, partial curve] | –

SMILES | Potency | activity change, negative = inhibition
CCc1ccc(OCC(=O)NC2CC(C)(C)NC(C)(C)C2)cc1 | inconclusive: 63.1 µM [inhibitor, single point] | –
O=C(Nc1ccccc1)N(CCc1nc2ccccc2[nH]1)C1CCCC1 | inconclusive: 2.51 µM [inhibitor, partial curve, poor fit] | –
CC(C)C(CC(=O)NCc1ccco1)c1ccco1 (stereo not given) | inconclusive: 39.8 µM [inhibitor, single point] | –
CCCOc1ccc(/C=C2\SC(N)=NC2=O)cc1OC | active: 56.2 µM | –
CCC(C(=O)Nc1cc(-c2cn3cccnc3n2)ccc1C)c1ccccc1 (stereo not given) | active: 39.8 µM | –
CNC(=O)c1cc2cccc(OC)c2oc1=O | inactive | –
Cc1cc(=O)c2cc3nc(-c4cccnc4)oc3c(Br)c2o1 | active: 39.8 µM | –
C/C=C(/C)C(=O)O[C@@H]1c2c(ccc3ccc(=O)oc23)O[C@@H]1C(C)(C)OC(=O)/C(C)=C\C | inconclusive: 79.4 µM [inhibitor, single point] | –
Cn1c(SCc2cccc(Br)c2)nnc1-c1ccncc1 | inconclusive: 89.1 µM [inhibitor, single point] | –
O=C(CN(CCc1ccccc1)C(=O)Cn1nnc(-c2cccs2)n1)NCc1ccco1 | inconclusive: 22.4 µM [inhibitor, partial curve, poor fit] | –
CC(C)OP(=O)(OC(C)C)C(C)NC(=O)Cc1ccccc1 (stereo not given) | inconclusive: 10 µM [inhibitor, partial curve] | –
O=C1Nc2ccccc2C12OCC(COc1ccc(Cl)cc1)O2 (stereo not given) | inconclusive: 89.1 µM [inhibitor, single point] | –
CCc1cccc(NC(=O)Cn2c(-c3ccc(F)cc3)cc(C(C)=O)c2C)c1 | inactive | –
COC(=O)c1c(NC(=O)CN2CCN(c3ncccn3)CC2)sc(C(N)=O)c1C | inconclusive: 50.1 µM [inhibitor, single point] | –
COc1ccc(/C=N\NC(=O)c2ccc([N+](=O)[O-])c(C)c2)cc1COc1ccccc1C(N)=O | inconclusive: 56.2 µM [inhibitor, partial curve, poor fit] | –
Cc1ccccc1OCC(=O)N/N=C/c1ccc(Sc2nc3ccccc3s2)o1 | inconclusive: 1.26 µM [inhibitor, full curve, poor fit] | –
Cn1c(SCC(=O)N/N=C/c2ccco2)nc2ccccc21 | inactive | –
CCOc1ccc(CCNC(=O)Cn2nc(C)c3c(C)n(-c4ccccc4)nc3c2=O)cc1 | inconclusive: 70.8 µM [inhibitor, partial curve] | –
COc1ccc2[nH]c3c(=O)n(Cc4ccc(C(=O)NCC5CCCO5)cc4)c(=S)[nH]c3c2c1 (stereo not given) | active: 89.1 µM | –
COc1ccc(N2CCN(C(=S)Nc3cccc(OC)c3)CC2)cc1 | inactive | –
Cc1ccc(NC(=O)CN(C)C(=O)COc2ccc(C(=O)c3ccc(F)cc3)cc2)cc1 | inactive | –
CCn1c(CC(=O)Nc2ccc(F)cc2)nnc1SCC(=O)N1CCOCC1 | inconclusive: 79.4 µM [inhibitor, partial curve, poor fit] | –
